In ChEMBL document CHEMBL1123329, “Aromatase inhibitors. Synthesis and evaluation of mammary tumor inhibiting activity of 3-alkylated 3-(4-aminophenyl)piperidine-2,6-diones” (J Med Chem, 1986) one finds IC50 data, which are given here for one compound.

SMILES strings stand for the structures.

The target of this test is T1, Aromatase (Homo sapiens, UniProt P11511).
T1 sequence (P11511 whole entry): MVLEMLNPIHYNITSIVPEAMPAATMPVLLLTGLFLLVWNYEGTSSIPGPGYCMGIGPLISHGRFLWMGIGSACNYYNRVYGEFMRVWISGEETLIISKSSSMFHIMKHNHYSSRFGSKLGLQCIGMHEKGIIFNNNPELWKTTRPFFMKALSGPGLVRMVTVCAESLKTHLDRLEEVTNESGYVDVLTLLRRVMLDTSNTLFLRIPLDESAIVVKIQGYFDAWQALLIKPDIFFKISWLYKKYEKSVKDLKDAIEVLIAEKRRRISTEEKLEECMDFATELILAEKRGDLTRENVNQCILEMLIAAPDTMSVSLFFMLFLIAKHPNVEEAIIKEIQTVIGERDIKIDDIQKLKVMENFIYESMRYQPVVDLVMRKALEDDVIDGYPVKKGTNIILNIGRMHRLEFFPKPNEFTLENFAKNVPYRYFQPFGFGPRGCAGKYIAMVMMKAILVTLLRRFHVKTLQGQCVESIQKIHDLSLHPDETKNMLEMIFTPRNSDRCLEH

`Nc1ccc(C2CCC(=O)NC2=O)cc1` (stereo unspecified) came in with an IC50 above 300 µM.

A word on the IC50: it is the concentration needed to halve the response being measured.
